# Values joined by “and” are separate entries in the source; they are usually repeats but may differ in a detail not shown here. Equal entries are not always repeated. Screen size: about 400,000 compounds; about 5,500 (1.4%) were called active. Inconclusive results, whose numbers are uncertain, are shown with a selection of clear calls. Calls follow the shape of the dose curve; as a rule, active = well fitted cell-killing curve with a large enough effect; inconclusive = small, poorly fitted or top-dose-only effect, or effect the other way; inactive = flat fitted curve, though single readings scatter. Where the call is inconclusive, the potency comes from a doubtful curve fit.
# Assay: qHTS assay for MDR1-selective chemotherapeutics: Primary screen using the parental adenocarcinoma cell KB-3-1; also: nearly all actives have a fitted effect of over 60% in size
# Settings: KB-3-1 viability, CellTiter-Glo ATP luminescence, 72 h; activity change, negative = cytotoxic: at 46.1 µM (top of the series)
# Summary of the method: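 Luminescent ATP read-out (CellTiter-Glo) measures survival of drug-naive KB-3-1 cells after 72 h compound exposure at 37 °C. Titration series was screened from lowest to highest concentration, with DMSO vehicle plates as background controls.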
# % is scaled to controls: 0 for no effect and ±100 for the full control effect; potency is read from the fitted curve at half-maximal effect.
SMILES,Potency,"activity change, negative = cytotoxic"
COC(=O)c1ccc(NC(=O)C(=O)NCC(c2cccnc2)N2CCN(c3ccccc3)CC2)cc1 (stereo not given),"inconclusive: 0.366 µM [rising, full curve, poor fit]",
COc1ccc(S(=O)(=O)N(CC(=O)NCCSc2ccccc2)c2ccc(C)cc2)cc1,"inconclusive: 32.6 µM [cytotoxic, single point]",
OB(O)c1cc2ccccc2s1,"inconclusive: 0.411 µM [cytotoxic, full curve, poor fit]",
O=C1CN(C(=O)COC(=O)CNC(=O)c2ccc(Cl)cc2)c2ccccc2N1,"inconclusive: 29.1 µM [rising, single point]",
O=C(O)C(=O)/C(=C\c1ccccc1)c1ccc2ccccc2n1,"inconclusive: 25.9 µM [cytotoxic, partial curve, poor fit]",
COc1cc(C(O)c2nc(-c3ccccc3C)cs2)ccc1F (stereo not given),"inconclusive: 14.6 µM [cytotoxic, single point]",
COc1c(C)cc(C(O)c2ncc(-c3cccc(C(F)(F)F)c3)[nH]2)cc1C (stereo not given),"inconclusive: 29.1 µM [cytotoxic, single point]",
Cc1cc(OCc2cc(C(=O)NC(C)c3c(C)nn(C)c3C)no2)cc(C)c1Cl (stereo not given),"inconclusive: 29.1 µM [cytotoxic, single point]",
CC(C)C(NC(=O)c1c(F)cccc1F)C(=O)N1CCN(S(=O)(=O)/C=C/c2ccccc2)CC1 (stereo not given),,inconclusive: -32.8% [cytotoxic]
Nc1nc(-c2ccccn2)nc(N)c1Cc1ccc(Cl)cc1Cl,"inconclusive: 14.6 µM [cytotoxic, single point]",
O=C(N/N=C/c1ccc([N+](=O)[O-])s1)c1ccccc1,"inconclusive: 23.1 µM [cytotoxic, partial curve, poor fit]",
Cc1cccc(Cn2c(=O)n(CCCC(=O)NCc3ccccc3Cl)c(=O)c3ccccc32)c1,"inconclusive: 18.4 µM [cytotoxic, single point]",
OCc1nc2ccccc2n1CC(O)Cn1ccc2ccccc21 (stereo not given),"inconclusive: 25.9 µM [cytotoxic, single point]",
COC(=O)CC1Oc2ccc(F)cc2-n2cc(-c3ccc(C)cc3)nc21 (stereo not given),inactive,
C[n+]1c2n(c3ccccc31)N=C(c1ccccc1)CS2,active: 2.31 µM and active: 2.91 µM,
O=C(OCn1ncc(Br)c(Br)c1=O)c1ccc(F)cc1,active: 3.26 µM,
COc1ccc(-n2cc(-c3ccccc3)nc2SCC(=O)Nc2ccccc2C)cc1,inactive,
N#Cc1cc(-c2ccccc2)nc(N2CCNCC2)n1,,inconclusive: -7.74%
CC(=O)c1cccc(-c2ccnc3c2CC(C(=O)Nc2ccc(F)c(Cl)c2)O3)c1 (stereo not given),"inconclusive: 18.4 µM [cytotoxic, partial curve]",
CC(C)(C)c1ccc(C(=O)C2CCCN(C(=O)CCn3cncn3)C2)cc1 (stereo not given),"inconclusive: 16.4 µM [cytotoxic, single point]",
Nc1nc(SCc2ccccn2)c2ncn(C3OC(CO)C(O)C3O)c2n1 (stereo not given),"inconclusive: 3.66 µM [rising, partial curve, poor fit]",
S=C(NCc1cccs1)Nc1cccc(Cl)c1,"inconclusive: 29.1 µM [cytotoxic, single point]",

# Full records from above:
# COc1ccc(S(=O)(=O)N(CC(=O)NCCSc2ccccc2)c2ccc(C)cc2)cc1 reads Potency: inconclusive: 32.6 µM [cytotoxic, single point]
# COc1c(C)cc(C(O)c2ncc(-c3cccc(C(F)(F)F)c3)[nH]2)cc1C (stereo not given) reads Potency: inconclusive: 29.1 µM [cytotoxic, single point]
# C[n+]1c2n(c3ccccc31)N=C(c1ccccc1)CS2 reads Potency: active: 2.31 µM and active: 2.91 µM
# O=C(O)C(=O)/C(=C\c1ccccc1)c1ccc2ccccc2n1 reads Potency: inconclusive: 25.9 µM [cytotoxic, partial curve, poor fit]

# Further entries:

SMILES,Potency,"activity change, negative = cytotoxic"
Nc1nonc1-c1nc2ccccc2n1Cc1ccccc1,"inconclusive: 18.4 µM [cytotoxic, single point]",
CCc1noc(C)c1C(=O)NNC(=O)c1nn(CC)c(=O)c2ccccc12,"inconclusive: 29.1 µM [rising, single point]",
CC(C)CN(Cc1cc(=O)oc2cc(-c3ccccc3)c(O)cc12)CC(C)C,"inconclusive: 29.1 µM [cytotoxic, single point]",
O=C(CSc1nnc(Cn2nnc3ccccc32)o1)N(Cc1ccc(Cl)cc1)c1ccccc1,active: 13 µM,
NNc1ccc2c(C(F)(F)F)cc(C(F)(F)F)nc2n1,"inconclusive: 29.1 µM [cytotoxic, single point]",
COc1ccccc1C1N(c2ccc(Cl)cc2)C(=O)C2CCCN21 (stereo not given),"inconclusive: 29.1 µM [cytotoxic, single point]",
CCOC(=O)[C@]12CCC=C1N(CCC1=CCCCC1)C(=O)[C@H](CC(=O)NCCCCc1ccccc1)C2,inactive,
CN(C)c1ccc(/C=C2\Oc3ccc(C#Cc4cccc(N)c4)cc3C2=O)cc1,"inconclusive: 29.1 µM [cytotoxic, single point]",
CCn1c(=NC(=O)CS(=O)(=O)c2ccc(C)cc2)sc2cccc(OC)c21,inactive,
COc1ccccc1Nc1ccc([N+](=O)[O-])cc1N,"inconclusive: 18.4 µM [cytotoxic, partial curve, poor fit]",
C=CCn1c(C)cc(C(=O)COc2ccc(S(=O)(=O)N3CCCC3)cc2[N+](=O)[O-])c1C,"inconclusive: 25.9 µM [cytotoxic, single point]",
COc1ccc(CSC(=N)N)cc1[N+](=O)[O-],"inconclusive: 29.1 µM [cytotoxic, single point]",
COc1cccc(Nc2nc(C(N)Cc3ccc(F)cc3)cs2)n1 (stereo not given),"inconclusive: 29.1 µM [cytotoxic, single point]",
COc1cccc(NC(=O)C(=O)NCC(c2cccnc2)N2CCN(c3ccccc3)CC2)c1 (stereo not given),inactive,
CCCN(C(=O)c1cccs1)c1c(N)n(Cc2ccccc2)c(=O)[nH]c1=O,"inconclusive: 18.4 µM [cytotoxic, partial curve, poor fit]",
O=[N+]([O-])c1ccc(Sc2nnnn2-c2ccccc2)c(Cl)c1,"inconclusive: 18.4 µM [cytotoxic, single point]",
COc1cc(CNc2nc(C)c([N+](=O)[O-])c(C)c2C#N)cc(OC)c1,"inconclusive: 16.4 µM [cytotoxic, partial curve]",
O=C(NC1CCCC1)C(c1ccccc1F)N(C(=O)c1ccco1)C1CCCC1 (stereo not given),"inconclusive: 23.1 µM [cytotoxic, single point]",
CC(C)Oc1ccc(C(=O)OCC(=O)NC2CCCCCC2)cc1,inactive,
CN1CCN(C2=C(NS(=O)(=O)c3cccs3)C(=O)c3ccccc3C2=O)CC1,"inconclusive: 29.1 µM [cytotoxic, single point]",
COc1cc(/C=N/Nc2ncc(C(F)(F)F)cc2Cl)cc(OC)c1O,"inconclusive: 2.91 µM [rising, full curve, poor fit]",
COc1ccc(OC)c(CNc2ncnc3onc(-c4ccc(Cl)cc4)c23)c1,active: 5.8 µM,

SMILES,Potency,"activity change, negative = cytotoxic"
CC(=O)N1CCN(c2ccc(NC(=O)c3ccc([N+](=O)[O-])o3)cc2Cl)CC1,"inconclusive: 14.6 µM [cytotoxic, partial curve, poor fit]",
Cc1cc(C(=O)COC(=O)Cc2n[nH]c(=O)c3ccccc23)c(C)n1-c1cccc(C(F)(F)F)c1,"inconclusive: 29.1 µM [cytotoxic, single point]",
Cc1cc(C)cc(-n2nnc(C(=O)NCc3ccco3)c2N)c1,"inconclusive: 23.1 µM [rising, single point]",
Cc1[nH]c2ccccc2c1C(=O)COC(=O)c1ccccc1SCC(=O)N1CCCC1,inactive,
COc1ccc(C(=O)NCCN2CCC(n3c(=O)[nH]c4ccccc43)CC2)cc1F,,inconclusive: 9.15%
Cc1nnc(NCc2ccncc2)c2ccccc12,"inconclusive: 32.6 µM [rising, partial curve, poor fit]",
CCN(CC)c1ccc(SS(=O)(=O)O)cc1,"inconclusive: 20.6 µM [cytotoxic, single point] and inconclusive: 23.1 µM [cytotoxic, single point]",
CCCNc1nc(-c2cc(C(=O)Nc3ccccc3)on2)cc(C(C)C)n1,,inconclusive: -16.1%
COc1ccc(C(=S)N2CCOCC2)cc1OC(=O)c1ccccc1Cl,"inconclusive: 20.6 µM [rising, single point]",
CCCn1c2c(c(=N)c3c1CCC3)CCC2,"inconclusive: 20.6 µM [cytotoxic, single point]",
CCOC(=O)c1ccc(Nc2cc(C)nc(N3CCOCC3)n2)cc1,"inconclusive: 18.4 µM [cytotoxic, single point]",
Cc1ccccc1-c1cnc(C(O)c2ccc(-c3ccccc3)cc2)[nH]1 (stereo not given),"inconclusive: 29.1 µM [cytotoxic, single point]",
COCC(C)(C)COS(N)(=O)=O,inactive,
CC(C)(C)c1ccc(OCCC(=O)Nc2cccc(S(=O)(=O)N3CCCCC3)c2)cc1,"inconclusive: 23.1 µM [cytotoxic, single point]",
Cn1c(-c2ccccc2[N+](=O)[O-])[n+](C)c2ccccc21,"inconclusive: 29.1 µM [cytotoxic, single point]",
Cc1cccc(C)c1Cn1c(C)c(C(=O)NCc2ccc([N+](=O)[O-])cc2)sc1=O,"inconclusive: 23.1 µM [cytotoxic, single point]",
Cn1c(=O)cc(NCCc2ccccc2)[nH]c1=O,"inconclusive: 29.1 µM [cytotoxic, partial curve, poor fit]",
COc1ccc(C(c2c(O)cc(C)n(Cc3ccco3)c2=O)N2CCN(c3ccccc3)CC2)cc1 (stereo not given),inactive,
CN(C)c1ccc(/C=C/c2ccccn2)cc1,"inconclusive: 2.31 µM [cytotoxic, full curve, poor fit]",
CCCCNC(=O)[C@@H]1CC=C[C@@H]2CCN(Cc3ccc(Cl)c(Cl)c3)C(=O)[C@@H]21,"inconclusive: 29.1 µM [cytotoxic, single point]",
C/C(=N\Nc1nc2ccccc2[nH]1)c1ccc([N+](=O)[O-])cc1,"inconclusive: 29.1 µM [cytotoxic, single point]",

# Source: PubChem BioAssay AID1347075 (National Center for Advancing Translational Sciences (NCATS), 2019)
